Tests used:
[1] = tested on: HE15 activation of AP-1 activity; assay: Inhibitor screen: HE15 (constitutive ER) activation of AP-1 activity; type: cell-based; conditions: HeLa cells
Procedure: (§1) An estrogen receptor (ER) was transiently transfected into either HeLa or HepG2 cells along with an AP-1 responsive reporter gene, Coll73-LUC. The transformed cells were then contacted with antiestrogens or estrogen in combination with prospective inhibitor drugs. In addition, a shortened constitutive version of the ER (HE15) that activates AP-1 activity in a cell specific manner which parallels the hormone dependent activity of native ER was also used. Luciferase was measured in cell extracts as an indication of AP-1 dependent promoter activity.

[2] = tested on: ER activation of AP-1 (Coll73-LUC); assay: Inhibitor screen: ER transiently transfected with Coll73-LUC in HeLa or HepG2 cells, hormone plus prospective inhibitor; type: cell-based
Procedure: as §1

SMILES: CN[C@@H]1C[C@H]2O[C@@](C)([C@@H]1OC)n1c3ccccc3c3c4c(c5c6ccccc6n2c5c31)C(=O)NC4 [staurosporine]
- inhibition of the activation of AP-1 activity by HE15 [1]: inhibit
- inhibition of hormone action at AP-1 sites ([2]; HeLa or HepG2 cells, Coll73-LUC): inhibit hormone action at AP-1 sites
- inhibition of ER activation of the collagenase promoter ([2]; HepG2 cells, native ER with hormone): inhibited

From patent US6884577B2, “Methods for screening compounds for estrogenic activity” (The Regents of the University of California, priority 1993, dated 2005)
